No constants are given. Whether binding was seen depends on the method and setting. Binding seen in cells or lysates may run through a third protein. A yes stands for co-enrichment or nearness to the bait. Other partners may have been found.

Sequences of proteins named here, by UniProt entry; tags and fusion partners are left off.
UniProt P35637: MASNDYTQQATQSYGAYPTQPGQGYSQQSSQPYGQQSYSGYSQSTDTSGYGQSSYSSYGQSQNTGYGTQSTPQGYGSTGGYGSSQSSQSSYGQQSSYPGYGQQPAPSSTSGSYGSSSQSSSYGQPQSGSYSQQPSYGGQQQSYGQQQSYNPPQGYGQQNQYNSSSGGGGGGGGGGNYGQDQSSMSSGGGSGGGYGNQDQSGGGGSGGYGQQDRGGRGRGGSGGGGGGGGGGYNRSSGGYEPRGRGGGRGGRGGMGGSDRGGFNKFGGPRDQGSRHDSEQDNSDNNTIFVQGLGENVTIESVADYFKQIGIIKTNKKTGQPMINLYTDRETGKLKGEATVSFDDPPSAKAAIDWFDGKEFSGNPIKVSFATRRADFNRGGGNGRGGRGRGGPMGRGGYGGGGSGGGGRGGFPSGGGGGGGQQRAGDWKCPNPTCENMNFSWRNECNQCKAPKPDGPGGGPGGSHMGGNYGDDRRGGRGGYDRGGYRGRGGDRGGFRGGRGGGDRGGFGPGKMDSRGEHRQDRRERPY
UniProt O75128: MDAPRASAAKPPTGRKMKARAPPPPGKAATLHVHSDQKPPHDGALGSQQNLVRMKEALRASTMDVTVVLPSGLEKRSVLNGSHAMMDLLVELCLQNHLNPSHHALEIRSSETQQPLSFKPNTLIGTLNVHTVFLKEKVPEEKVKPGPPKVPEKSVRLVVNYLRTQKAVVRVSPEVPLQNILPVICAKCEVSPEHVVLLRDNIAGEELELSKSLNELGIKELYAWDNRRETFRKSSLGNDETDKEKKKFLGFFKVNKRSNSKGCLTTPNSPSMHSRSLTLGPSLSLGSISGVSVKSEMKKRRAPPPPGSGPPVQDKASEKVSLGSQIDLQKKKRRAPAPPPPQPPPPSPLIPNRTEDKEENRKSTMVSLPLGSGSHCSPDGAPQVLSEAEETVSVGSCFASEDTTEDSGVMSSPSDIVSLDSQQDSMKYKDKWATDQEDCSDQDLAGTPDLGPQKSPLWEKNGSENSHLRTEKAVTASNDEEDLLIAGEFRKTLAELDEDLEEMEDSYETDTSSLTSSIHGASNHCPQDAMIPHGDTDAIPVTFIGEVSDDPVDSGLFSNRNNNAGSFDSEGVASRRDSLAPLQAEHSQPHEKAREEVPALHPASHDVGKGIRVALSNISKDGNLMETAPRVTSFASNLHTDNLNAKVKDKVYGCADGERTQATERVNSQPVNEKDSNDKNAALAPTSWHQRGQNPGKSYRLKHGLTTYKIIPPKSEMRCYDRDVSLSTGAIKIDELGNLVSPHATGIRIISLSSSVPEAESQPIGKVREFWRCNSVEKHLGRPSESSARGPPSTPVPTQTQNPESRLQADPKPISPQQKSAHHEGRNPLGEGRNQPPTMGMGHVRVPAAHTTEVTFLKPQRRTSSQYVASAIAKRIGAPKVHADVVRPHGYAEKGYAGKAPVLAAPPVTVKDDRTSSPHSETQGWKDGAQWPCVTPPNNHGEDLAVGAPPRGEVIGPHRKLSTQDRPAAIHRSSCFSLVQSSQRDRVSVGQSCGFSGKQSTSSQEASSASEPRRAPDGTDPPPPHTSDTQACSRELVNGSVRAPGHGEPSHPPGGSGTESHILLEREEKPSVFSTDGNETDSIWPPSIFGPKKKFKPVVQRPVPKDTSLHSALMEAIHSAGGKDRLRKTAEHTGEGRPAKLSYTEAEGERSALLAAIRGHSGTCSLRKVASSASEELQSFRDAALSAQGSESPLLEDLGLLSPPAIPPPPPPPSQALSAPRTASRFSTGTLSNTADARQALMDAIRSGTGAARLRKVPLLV
UniProt Q9UHV7: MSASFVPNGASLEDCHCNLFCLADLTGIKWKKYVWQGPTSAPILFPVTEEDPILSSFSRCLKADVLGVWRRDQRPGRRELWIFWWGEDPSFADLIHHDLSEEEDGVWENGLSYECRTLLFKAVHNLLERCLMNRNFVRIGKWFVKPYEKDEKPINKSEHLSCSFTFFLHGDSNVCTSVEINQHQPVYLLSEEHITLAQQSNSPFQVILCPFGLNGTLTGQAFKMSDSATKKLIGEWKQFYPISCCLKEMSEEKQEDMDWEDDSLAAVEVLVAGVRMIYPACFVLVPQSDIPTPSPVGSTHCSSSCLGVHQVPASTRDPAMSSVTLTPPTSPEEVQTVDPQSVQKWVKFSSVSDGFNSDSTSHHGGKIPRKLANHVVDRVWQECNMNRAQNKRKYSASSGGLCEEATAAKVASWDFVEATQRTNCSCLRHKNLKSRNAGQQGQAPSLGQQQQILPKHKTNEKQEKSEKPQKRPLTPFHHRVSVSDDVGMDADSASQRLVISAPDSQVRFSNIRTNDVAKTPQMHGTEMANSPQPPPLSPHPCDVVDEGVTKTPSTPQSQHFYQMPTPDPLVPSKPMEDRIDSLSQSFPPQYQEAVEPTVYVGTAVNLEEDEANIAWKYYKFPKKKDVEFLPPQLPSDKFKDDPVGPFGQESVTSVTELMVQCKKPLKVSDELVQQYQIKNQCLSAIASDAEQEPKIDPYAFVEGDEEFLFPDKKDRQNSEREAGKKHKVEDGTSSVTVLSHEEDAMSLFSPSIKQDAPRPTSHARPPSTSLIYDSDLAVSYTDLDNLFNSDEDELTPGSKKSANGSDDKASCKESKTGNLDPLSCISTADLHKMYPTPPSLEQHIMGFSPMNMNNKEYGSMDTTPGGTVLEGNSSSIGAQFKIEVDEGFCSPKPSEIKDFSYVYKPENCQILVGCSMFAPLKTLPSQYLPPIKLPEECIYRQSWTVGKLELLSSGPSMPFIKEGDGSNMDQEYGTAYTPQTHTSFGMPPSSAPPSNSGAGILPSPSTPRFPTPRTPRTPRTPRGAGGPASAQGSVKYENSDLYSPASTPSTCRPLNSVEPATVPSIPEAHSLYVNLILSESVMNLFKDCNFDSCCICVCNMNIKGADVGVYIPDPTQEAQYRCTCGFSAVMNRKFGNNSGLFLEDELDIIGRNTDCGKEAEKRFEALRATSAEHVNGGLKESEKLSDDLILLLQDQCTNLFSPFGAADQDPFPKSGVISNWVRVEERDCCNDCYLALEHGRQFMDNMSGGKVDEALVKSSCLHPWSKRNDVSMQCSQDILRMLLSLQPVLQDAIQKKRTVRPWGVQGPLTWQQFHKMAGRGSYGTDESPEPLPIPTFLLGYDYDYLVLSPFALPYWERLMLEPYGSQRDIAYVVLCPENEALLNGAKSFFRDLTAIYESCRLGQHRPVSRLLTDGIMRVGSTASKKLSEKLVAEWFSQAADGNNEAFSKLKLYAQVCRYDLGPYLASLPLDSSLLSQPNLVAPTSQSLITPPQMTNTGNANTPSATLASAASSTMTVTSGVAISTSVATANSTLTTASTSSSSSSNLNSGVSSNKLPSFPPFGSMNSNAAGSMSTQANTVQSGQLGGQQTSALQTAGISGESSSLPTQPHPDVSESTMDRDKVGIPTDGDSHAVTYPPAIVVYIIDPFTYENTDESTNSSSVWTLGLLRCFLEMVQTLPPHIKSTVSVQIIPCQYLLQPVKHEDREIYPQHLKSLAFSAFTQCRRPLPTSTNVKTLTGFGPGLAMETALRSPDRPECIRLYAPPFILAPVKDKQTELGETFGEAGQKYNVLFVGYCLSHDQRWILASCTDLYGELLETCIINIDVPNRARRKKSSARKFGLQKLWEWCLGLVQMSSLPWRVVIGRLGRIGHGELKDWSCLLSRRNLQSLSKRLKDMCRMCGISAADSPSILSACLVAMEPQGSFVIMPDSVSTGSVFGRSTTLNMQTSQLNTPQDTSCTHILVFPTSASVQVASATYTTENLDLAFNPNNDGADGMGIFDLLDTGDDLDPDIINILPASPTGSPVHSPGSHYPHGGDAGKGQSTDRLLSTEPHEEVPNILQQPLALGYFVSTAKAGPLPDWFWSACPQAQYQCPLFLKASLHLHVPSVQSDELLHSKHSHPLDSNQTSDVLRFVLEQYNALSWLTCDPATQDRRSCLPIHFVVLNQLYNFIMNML

This note sets out measurements from doi:10.1101/2021.06.11.448082.

This test has as its target APEX2-FUS WT (Twin-Strep-tagged APEX2 fused to wild-type human FUS) (human) (UniProt P35637). The test can be described thus: proximity labelling.

With “Cordon-Bleu WH2 Repeat Protein (from UniProt O75128 1-1261)”, the binding entry is recorded as “binds”.

As to “Mediator of RNA polymerase II transcription subunit 13 (from UniProt Q9UHV7 1-2174)”, the binding result was “binds”.

B1: Pleckstrin homology-like domain family B member 2 (protein, UniProt Q86SQ0 1-1253)
chain: MEEHSYIQKELDLQNGSLEEDSVVHSVENDSQNMMESLSPKKYSSSLRFKANGDYSGSYLTLSQPVPAKRSPSPLGTSVRSSPSLAKIQGSKQFSYDGTDKNIPMKPPTPLLNTTSSLSGYPLGRADFDHYTGRDSERALRLSEKPPYSKYSSRHKSHDNVYSLGGLEGRKASGSLLAMWNGSSLSDAGPPPISRSGAASMPSSPKQARKMSIQDSLALQPKLTRHKELASENINLRTRKYSSSSLSHMGAYSRSLPRLYRATENQLTPLSLPPRNSLGNSKRTKLGEKDLPHSVIDNDNYLNFSSLSSGALPYKTSASEGNPYVSSTLSVPASPRVARKMLLASTSSCASDDFDQASYVGTNPSHSLLAGESDRVFATRRNFSCGSVEFDEADLESLRQASGTPQPALRERKSSISSISGRDDLMDYHRRQREERLREQEMERLERQRLETILSLCAEYTKPDSRLSTGTTVEDVQKINKELEKLQLSDEESVFEEALMSPDTRYRCHRKDSLPDADLASCGSLSQSSASFFTPRSTRNDELLSDLTRTPPPPSSTFPKASSESSYLSILPKTPEGISEEQRSQELAAMEETRIVILNNLEELKQKIKDINDQMDESFRELDMECALLDGEQKSETTELMKEKEILDHLNRKIAELEKNIVGEKTKEKVKLDAEREKLERLQELYSEQKTQLDNCPESMREQLQQQLKRDADLLDVESKHFEDLEFQQLEHESRLDEEKENLTQQLLREVAEYQRNIVSRKEKISALKKQANHIVQQAQREQDHFVKEKNNLIMMLQREKENLCNLEKKYSSLSGGKGFPVNPNTLKEGYISVNEINEPCGNSTNLSPSTQFPADADAVATEPATAVLASQPQSKEHFRSLEERKKQHKEGLYLSDTLPRKKTTSSISPHFSSATMGRSITPKAHLPLGQSNSCGSVLPPSLAAMAKDSESRRMLRGYNHQQMSEGHRQKSEFYNRTASESNVYLNSFHYPDHSYKDQAFDTLSLDSSDSMETSISACSPDNISSASTSNIARIEEMERLLKQAHAEKTRLLESREREMEAKKRALEEEKRRREILEKRLQEETSQRQKLIEKEVKIRERQRAQARPLTRYLPVRKEDFDLRSHVETAGHNIDTCYHVSITEKTCRGFLIKMGGKIKTWKKRWFVFDRNKRTFSYYADKHETKLKGVIYFQAIEEVYYDHLKNANKSPNPLLTFSVKTHDRIYYMVAPSPEAMRIWMDVIVTGAEGYTHFLL
Regarding B1, the binding entry was “binds”.
